Paper PMC10724237, “Identification of 5-HT2A receptor signaling pathways associated with psychedelic potential” (Nature Communications, 2023)
No constants are given. Whether binding was seen depends on the method and setting. Binding seen in cells or lysates may run through a third protein. Some results given as binding are weak or reduced against the parent protein; the word gives no strength.

By UniProt entry, the sequences of proteins in these tests, tags left out.
UniProt P41595: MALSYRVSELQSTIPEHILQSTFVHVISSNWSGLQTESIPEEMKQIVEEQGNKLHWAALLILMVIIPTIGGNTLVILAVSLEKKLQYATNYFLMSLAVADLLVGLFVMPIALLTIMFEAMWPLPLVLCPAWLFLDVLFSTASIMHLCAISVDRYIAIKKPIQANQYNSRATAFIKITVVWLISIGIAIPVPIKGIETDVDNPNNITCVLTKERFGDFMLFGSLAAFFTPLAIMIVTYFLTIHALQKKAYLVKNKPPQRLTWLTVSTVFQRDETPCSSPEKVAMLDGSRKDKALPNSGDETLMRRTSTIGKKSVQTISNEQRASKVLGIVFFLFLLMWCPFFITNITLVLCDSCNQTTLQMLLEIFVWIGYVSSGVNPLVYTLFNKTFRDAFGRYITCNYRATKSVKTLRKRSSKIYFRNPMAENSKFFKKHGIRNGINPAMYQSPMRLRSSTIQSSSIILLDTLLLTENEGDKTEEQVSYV
UniProt P35363: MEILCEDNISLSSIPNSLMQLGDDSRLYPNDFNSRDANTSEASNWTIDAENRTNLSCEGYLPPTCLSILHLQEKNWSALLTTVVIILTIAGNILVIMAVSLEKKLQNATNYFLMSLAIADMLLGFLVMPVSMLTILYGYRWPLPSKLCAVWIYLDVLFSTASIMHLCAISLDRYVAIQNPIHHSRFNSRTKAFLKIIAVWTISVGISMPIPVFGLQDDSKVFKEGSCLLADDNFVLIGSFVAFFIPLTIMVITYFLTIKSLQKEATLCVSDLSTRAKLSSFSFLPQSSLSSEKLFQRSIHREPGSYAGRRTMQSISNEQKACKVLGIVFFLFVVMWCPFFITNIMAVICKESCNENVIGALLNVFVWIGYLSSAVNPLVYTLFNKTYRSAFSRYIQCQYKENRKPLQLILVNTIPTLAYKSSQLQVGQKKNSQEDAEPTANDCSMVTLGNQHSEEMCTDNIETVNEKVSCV

Key:
[1] = molecular target: 5-HT2B receptor with C-terminal fused renilla luciferase (RLuc8) (not stated (human or mouse cDNA cloned)) (UniProt P41595); experiment: FRET or BRET; BRET^1 in HEK293T cells co-transfected 1:15 with 5-HT receptor-RLuc8 and Venus-β-arrestin2; recruitment stimulated by agonist (5-HT, psychedelics, 25N series); 37 °C, 60-minute compound incubation (other time points in kinetic runs); coelenterazine h; HBSS, 20 mM HEPES, pH 7.4
[2] = molecular target: mouse 5-HT2A receptor with C-terminal fused renilla luciferase (RLuc8) (mouse) (UniProt P35363); experiment: as above

binding [1]: binds weakly | binding [2]: binds
Substance: Venus-tagged N-terminal β-arrestin2 (from UniProt P32121 1-409)
